In PubChem BioAssay (NCATS):
The inconclusive results got no clear call from the source; some entries with a clear call stand among them for comparison. Potencies beside an inconclusive call are fits to weak or partial responses and may not hold up. Active and inactive are the calls of the source. The call rests on the fitted dose curve; in most records, active means well fitted curve in the direction sought with a large enough effect; inconclusive means small, poorly fitted or top-dose-only effect, or another doubt; inactive means no such curve, though single readings can be large; an effect the other way counts as inactive or inconclusive.

How the values were obtained:
[1] = Quantitative High-Throughput drug screen in 47 multiple myeloma cell lines against the NCATS MIPE library collection: KHM11_PLB cell viability assay (AID 1918962); conditions: KHM11 myeloma cell viability, CellTiter-Glo ATP luminescence, 48 h; series mostly up to 45.8 µM; further: nearly all actives have a fitted effect of over 35% in size
Summary of the method: (§1)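 Myeloma cell lines, 500 cells per well, exposed to MIPE 4.0 library compounds for 48 h at 37C, 5% CO2. Viability from ATP by CellTiter-Glo luminescence; normalised to DMSO (100%) and media-only (0%) wells.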

[2] = Quantitative High-Throughput drug screen in 47 multiple myeloma cell lines against the NCATS MIPE library collection: JIM3_ECACC cell viability assay (AID 1918963; further: nearly all actives have a fitted effect of over 35% in size)
Summary of the method: as §1

[3] = Quantitative High-Throughput drug screen in 47 multiple myeloma cell lines against the NCATS MIPE library collection: INA6_PLB cell viability assay (AID 1918965; further: nearly all actives have a fitted effect of over 55% in size); conditions: INA6 myeloma viability, CellTiter-Glo ATP luminescence, 48 h; series mostly up to 45.8 µM
Summary of the method: as §1

[4] = Quantitative High-Throughput drug screen in 47 multiple myeloma cell lines against the NCATS MIPE library collection: JJN3_DSMZ cell viability assay (AID 1918966; further: nearly all actives have a fitted effect of over 50% in size)
Summary of the method: (§2)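 Viability readout: CellTiter-Glo luminescence following 5 min room-temperature incubation with reagent. Prior exposure: 48 h, 37C, humidified 5% CO2, 500 cells per well.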

[5] = Quantitative High-Throughput drug screen in 47 multiple myeloma cell lines against the NCATS MIPE library collection: KMS27_JCRB cell viability assay (AID 1918970); conditions: KMS27 myeloma cells, CellTiter-Glo ATP viability, 48 h; viability (% of DMSO): at 45.8 µM (top of the series); further: nearly all actives have a fitted effect of over 30% in size
Summary of the method: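 Each line is seeded at 500 cells per well and treated with library compounds for 48 hours under 37 °C, 5% CO2. CellTiter-Glo is then added for 5 min at room temperature before median relative luminescence is recorded.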

[6] = Quantitative High-Throughput drug screen in 47 multiple myeloma cell lines against the NCATS MIPE library collection: KMS12BM_JCRB cell viability assay (AID 1918971); conditions: KMS12BM myeloma viability, CellTiter-Glo ATP, 48 h; viability, % of DMSO: at 45.8 µM (top of the series); further: nearly all actives have a fitted effect of over 35% in size
Summary of the method: as §2

[7] = Quantitative High-Throughput drug screen in 47 multiple myeloma cell lines against the NCATS MIPE library collection: JIM1_ECACC cell viability assay (AID 1918964); conditions: JIM1 myeloma viability, CellTiter-Glo ATP luminescence, 48 h; viability (% of DMSO): at 45.8 µM (top of the series)
Summary of the method: as §2

[8] = Quantitative High-Throughput drug screen in 47 multiple myeloma cell lines against the NCATS MIPE library collection: H1112_PLB cell viability assay (AID 1918967; further: nearly all actives have a fitted effect of over 30% in size)
Summary of the method: as §2

[9] = Quantitative High-Throughput drug screen in 47 multiple myeloma cell lines against the NCATS MIPE library collection: KMS12PE_JCRB cell viability assay (AID 1918972); conditions: KMS12PE myeloma viability, CellTiter-Glo ATP, 48 h; viability: at 45.8 µM (top of the series); further: nearly all actives have a fitted effect of over 30% in size
Summary of the method: as §1

[10] = Quantitative High-Throughput drug screen in 47 multiple myeloma cell lines against the NCATS MIPE library collection: Karpas25_ECACC cell viability assay (AID 1918968; further: nearly all actives have a fitted effect of over 35% in size)
Summary of the method: as §2
Potency means the concentration at half of the fitted maximal effect.

| Structure (SMILES) | Potency [1] | Potency [2] | Potency [3] | Potency [4] | Potency [5] | Potency [6] | Potency [7] | Potency [8] | Potency [9] | Potency [10] |
| --- | --- | --- | --- | --- | --- | --- | --- | --- | --- | --- |
| CNC(=O)c1cc(Oc2ccc(NC(=O)Nc3ccc(Cl)c(C(F)(F)F)c3)cc2)ccn1 | active: 11.8 µM | active: 10.5 µM | active: 13.2 µM | active: 23.5 µM | active: 3.32 µM | inconclusive: 16.6 µM [cytotoxic, partial curve, poor fit] |  |  |  |  |
| C=CC(=O)Nc1cc2c(Nc3ccc(F)c(Cl)c3)ncnc2cc1OCCCN1CCOCC1 | inactive | inconclusive: 3.32 µM [cytotoxic, full curve] |  |  | inconclusive: 0.0332 µM [cytotoxic, full curve, poor fit] | active: 14.8 µM | inconclusive: 0.264 µM [cytotoxic, full curve, poor fit] | active: 4.69 µM |  |  |
| Cc1cnc(-c2cc(N3CCN(C(=O)CCS(C)(=O)=O)CC3)ncc2Cl)c(C)c1 | inconclusive: 0.372 µM [rising, full curve, poor fit] | inactive | active: 18.7 µM | inactive | inconclusive: 37.2 µM [cytotoxic, single point] | inconclusive: 11.8 µM [cytotoxic, single point] |  |  | inconclusive: 0.003 µM [cytotoxic, full curve, poor fit] |  |
| CC(C)Oc1ccc(C(=O)N[C@H](CNC(=O)CN(C)C)Cc2ccc(-c3cn4cccc([C@H](C)O)c4n3)cc2)cc1Cl | inconclusive: 18.7 µM [cytotoxic, partial curve, poor fit] | active: 0.209 µM |  | inactive |  |  |  | inconclusive: 0.296 µM [cytotoxic, full curve] |  |  |
| CCc1c(O)cc(O)c(C(=O)c2ccc(OCCN3CCOCC3)c(OC)c2)c1CC(=O)N(CCOC)CCOC | active: 0.469 µM | active: 0.833 µM |  |  | inconclusive: 0.187 µM [cytotoxic, full curve, poor fit] |  | inconclusive: 0.526 µM [cytotoxic, full curve, poor fit] | active: 14.8 µM | inconclusive: 0.235 µM [cytotoxic, full curve, poor fit] |  |
| Cn1cc(-c2ccncc2)c(-c2ccc(OCc3ccc4ccccc4n3)cc2)n1 | inconclusive: 1.48 µM [cytotoxic, full curve] | inconclusive: 16.6 µM [cytotoxic, partial curve] |  |  | inconclusive: 1.48 µM [cytotoxic, full curve, poor fit] |  | inconclusive: 10.5 µM [cytotoxic, partial curve, poor fit] | inconclusive: 4.18 µM [cytotoxic, full curve] |  |  |
| c1ccc(CNc2nc(N3CCOc4ccccc43)nc3c2CCCC3)cc1 | inconclusive: 13.2 µM [rising, partial curve] | inconclusive: 2.96 µM [cytotoxic, full curve, poor fit] |  | inactive | inconclusive: 29.6 µM [cytotoxic, partial curve, poor fit] | inconclusive: 26.4 µM [cytotoxic, single point] |  | inactive | inconclusive: 16.6 µM [cytotoxic, partial curve, poor fit] | inconclusive: 14.8 µM [cytotoxic, partial curve, poor fit] |
| COc1ccc(Cn2ccc3ccc(C(=O)NO)cc32)cc1 | inconclusive: 0.0296 µM [rising, full curve, poor fit] | inconclusive: 23.5 µM [cytotoxic, single point] |  |  | inconclusive: 23.5 µM [cytotoxic, single point] | inconclusive: 8.33 µM [cytotoxic, partial curve, poor fit] | inactive |  |  |  |
| Cc1cccc(CN2CCN(C(c3ccccc3)c3ccc(Cl)cc3)CC2)c1 (stereo not drawn) | inconclusive: 5.26 µM [cytotoxic, full curve, poor fit] | inconclusive: 33.2 µM [cytotoxic, single point] |  |  |  | active: 26.4 µM | inactive |  |  |  |
| CCC(=O)N1CCN(c2ccc(-n3c(=O)ccc4cnc5ccc(-c6cnc7ccccc7c6)cc5c43)cc2C(F)(F)F)CC1 | inconclusive: 0.0332 µM [cytotoxic, full curve] | inconclusive: 0.0332 µM [cytotoxic, full curve] |  |  | inconclusive: 0.0166 µM [cytotoxic, full curve] |  | inconclusive: 0.118 µM [cytotoxic, full curve] | inconclusive: 1.18 µM [cytotoxic, partial curve] | inconclusive: 0.0833 µM [cytotoxic, full curve] |  |
| CC(C)OC(=O)[C@H](C)N[P@](=O)(OC[C@H]1O[C@@H](n2ccc(=O)[nH]c2=O)[C@](C)(F)[C@H]1O)Oc1ccccc1 | inactive | inactive | inactive | inconclusive: 11.8 µM [cytotoxic, partial curve, poor fit] |  | active: 1.66 µM |  | inconclusive: 16.6 µM [cytotoxic, partial curve, poor fit] |  |  |
| CCOc1ccccc1OCCNC(C)Cc1ccc(OC)c(S(N)(=O)=O)c1 (stereo not drawn) | inactive | inactive | inconclusive: 0.0037 µM [cytotoxic, full curve, poor fit] | inactive |  | inconclusive: 0.0026 µM [rising, full curve] |  |  |  | inconclusive: 0.0023 µM [rising, full curve, poor fit] |
| Cn1cnc(-c2cc3nccc(Oc4ccc(NC(=S)NC(=O)Cc5ccccc5)cc4F)c3s2)c1 | inconclusive: 7.43 µM [rising, partial curve, poor fit] | inconclusive: 5.26 µM [cytotoxic, full curve] |  |  |  | inconclusive: 37.2 µM [cytotoxic, single point] | inconclusive: 23.5 µM [cytotoxic, single point] | inconclusive: 8.33 µM [cytotoxic, partial curve] | inconclusive: 8.33 µM [cytotoxic, partial curve] | inconclusive: 7.43 µM [cytotoxic, full curve] |
| Cc1ccc(Nc2nccc(N(C)c3ccc4c(C)n(C)nc4c3)n2)cc1S(N)(=O)=O | inconclusive: 13.2 µM [cytotoxic, partial curve, poor fit] | inconclusive: 11.8 µM [cytotoxic, partial curve] |  |  | active: 20.9 µM |  |  |  | active: 16.6 µM | active: 16.6 µM |
| NCCCCNCCCN | inconclusive: 33.2 µM [cytotoxic, single point] | active: 18.7 µM |  |  | inconclusive: 20.9 µM [cytotoxic, partial curve, poor fit] |  | inconclusive: 8.33 µM [cytotoxic, partial curve, poor fit] | inconclusive: 20.9 µM [cytotoxic, partial curve] | inconclusive: 33.2 µM [cytotoxic, single point] |  |
| O=C(Nc1cccc2c(=O)cc(-c3nn[nH]n3)oc12)c1ccc(OCCCCc2ccccc2)cc1 | inconclusive: 33.2 µM [cytotoxic, single point] | inconclusive: 18.7 µM [cytotoxic, partial curve] |  |  | inconclusive: 29.6 µM [cytotoxic, single point] | inconclusive: 33.2 µM [cytotoxic, single point] | inconclusive: 18.7 µM [cytotoxic, partial curve, poor fit] | inconclusive: 20.9 µM [cytotoxic, partial curve] |  |  |
| CCCCN(CCCC)CC(O)c1cc(Cl)cc2c1-c1ccc(Cl)cc1C2=Cc1ccc(Cl)cc1 (stereo not drawn) | inconclusive: 37.2 µM [cytotoxic, single point] | inconclusive: 20.9 µM [cytotoxic, single point] |  |  | inconclusive: 0.833 µM [rising, partial curve, poor fit] | inconclusive: 29.6 µM [cytotoxic, single point] | inconclusive: 1.32 µM [rising, full curve, poor fit] |  |  | active: 23.5 µM |
| CN(C)CCC=C1c2ccccc2C=Cc2ccccc21 | inactive | inconclusive: 9.35 µM [cytotoxic, partial curve, poor fit] |  |  |  | active: 1.48 µM | inconclusive: 0.0332 µM [cytotoxic, full curve, poor fit] | inconclusive: 20.9 µM [cytotoxic, partial curve, poor fit] |  |  |
| CON=C(C(=O)N[C@@H]1C(=O)N2C(C(=O)O)=C(CSC(=O)c3ccco3)CS[C@H]12)c1csc(N)n1 | inconclusive: 0.001 µM | inconclusive: 23.5 µM [cytotoxic, partial curve, poor fit] | inactive | inactive | inconclusive: 0.662 µM [cytotoxic, full curve, poor fit] | inactive |  | inconclusive: 29.6 µM [cytotoxic, single point] | inconclusive: 0.662 µM [cytotoxic, partial curve, poor fit] | active: 16.6 µM |

Some of the entries so far, as tab-separated lines:
Structure (SMILES)	Potency [1]	Potency [2]	Potency [3]	Potency [4]	Potency [5]	Potency [6]	Potency [7]	Potency [8]	Potency [9]	Potency [10]
Cc1cccc(CN2CCN(C(c3ccccc3)c3ccc(Cl)cc3)CC2)c1 (stereo not drawn)	inconclusive: 5.26 µM [cytotoxic, full curve, poor fit]	inconclusive: 33.2 µM [cytotoxic, single point]				active: 26.4 µM	inactive			
CCC(=O)N1CCN(c2ccc(-n3c(=O)ccc4cnc5ccc(-c6cnc7ccccc7c6)cc5c43)cc2C(F)(F)F)CC1	inconclusive: 0.0332 µM [cytotoxic, full curve]	inconclusive: 0.0332 µM [cytotoxic, full curve]			inconclusive: 0.0166 µM [cytotoxic, full curve]		inconclusive: 0.118 µM [cytotoxic, full curve]	inconclusive: 1.18 µM [cytotoxic, partial curve]	inconclusive: 0.0833 µM [cytotoxic, full curve]	
